Source: PubChem BioAssay AID1159578 (Peter MacCallum Cancer Centre, 2015)
Shown is an unselected part of about 18,000 deposited reagents. Over the whole deposit, about 1,030 (5.7%) are marked active. 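Inactive calls also include pools with fewer than 3300 nuclei, whose migration was not assessed.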 Raw values vary from plate to plate and are shown uncorrected. Further read-outs or replicates are left out here.

Screen: 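Knock-downs that alter how fast lymphatic endothelial cells migrate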 (primary screen)
Cell system: human lymphatic endothelial cells
Knock-down reagent: siRNA pool against human genes, 40 nM
Timing: 48 h after transfection
Detection: 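High-content imaging of dye-stained cells in a scratch assay measures filled wound area and nuclei per well; duplicate means given as ratio to mock and robust z-score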
Reading the numbers: migration robust z-score: higher = faster migration into the scratch; nuclei per well: higher = more cells in the well
Call rule: 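Migration changed when robust z exceeds 2 or falls below -2 and mean nuclei number is at least 3300; otherwise not called changed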
Meaning of the calls: active = migration changed; inactive = no migration change, or too few cells

PRKAA1 [SID255351781]
- migration robust z-score: 0.7
- nuclei per well, duplicate mean: 5658
- Call: inactive

CA5A [SID255348640]
- migration robust z-score: -0.31
- nuclei per well, duplicate mean: 5014
- Call: inactive

PSMC6 [SID255351899]
- migration robust z-score: -2.83
- nuclei per well, duplicate mean: 4875
- Call: active

SERPINB8 [SID255351566]
- migration robust z-score: 1.43
- nuclei per well, duplicate mean: 7232
- Call: inactive

SAMD1 [SID255361817]
- migration robust z-score: 1.14
- nuclei per well, duplicate mean: 5475
- Call: inactive

LY6E [SID255350816]
- migration robust z-score: 0.26
- nuclei per well, duplicate mean: 5881
- Call: inactive

ANXA2 [SID255348315]
- migration robust z-score: -0.56
- nuclei per well, duplicate mean: 5180
- Call: inactive

CASP6 [SID255348700]
- migration robust z-score: -0.05
- nuclei per well, duplicate mean: 5186
- Call: inactive

PRPH2 [SID255352080]
- migration robust z-score: -0.39
- nuclei per well, duplicate mean: 5844
- Call: inactive

DUX5 [SID255356823]
- migration robust z-score: -0.4
- nuclei per well, duplicate mean: 4138
- Call: inactive

In a second layout: 3 of the entries above.
LY6E [SID255350816] | migration robust z-score = 0.26; nuclei per well, duplicate mean = 5881; Call = inactive
ANXA2 [SID255348315] | migration robust z-score = -0.56; nuclei per well, duplicate mean = 5180; Call = inactive
CASP6 [SID255348700] | migration robust z-score = -0.05; nuclei per well, duplicate mean = 5186; Call = inactive

Additional records follow.
BICD1 [SID255348541]
- migration robust z-score: -0.86
- nuclei per well, duplicate mean: 5589
- Call: inactive

TPM3 [SID255352946]
- migration robust z-score: 0.36
- nuclei per well, duplicate mean: 5632
- Call: inactive

SENP7 [SID255359361]
- migration robust z-score: 0.32
- nuclei per well, duplicate mean: 4740
- Call: inactive

SBK1 [SID255365474]
- migration robust z-score: -0.88
- nuclei per well, duplicate mean: 3652
- Call: inactive

CCDC78 [SID255362602]
- migration robust z-score: 1.81
- nuclei per well, duplicate mean: 6366
- Call: inactive

GJB6 [SID255355365]
- migration robust z-score: -3.61
- nuclei per well, duplicate mean: 5986
- Call: active

SLC10A6 [SID255365191]
- migration robust z-score: 0.83
- nuclei per well, duplicate mean: 5458
- Call: inactive

ATP11A [SID255356105]
- migration robust z-score: 0.06
- nuclei per well, duplicate mean: 6866
- Call: inactive

OAS3 [SID255351331]
- migration robust z-score: 1.29
- nuclei per well, duplicate mean: 3549
- Call: inactive

PAQR7 [SID255363804]
- migration robust z-score: -0.81
- nuclei per well, duplicate mean: 5316
- Call: inactive

SLC7A6OS [SID255361211]
- migration robust z-score: 1.12
- nuclei per well, duplicate mean: 5489
- Call: inactive
